{
  "source": "PubChem BioAssay AID588499",
  "about": "(NMMLSC, 2011)",
  "note": "The campaign covered roughly 360,000 compounds. About 610 (0.17%) were called active. This list was built around the results that the source calls inconclusive (neither active nor inactive); the mix of calls is not that of the screen. Rule as the data show it: active = inhibition above about 30%; inconclusive = no clear call, values can overlap the other calls; inactive = below that.",
  "data": [
    {"system": "Botulinum neurotoxin type A light chain protease (Clostridium botulinum A str. ATCC 3502)", "experiment": "blockers of BoNT/A LC substrate cleavage – biochemical, flow cytometry, MLPCN library, primary screen (AID 588499); also: plate controls were buffer without enzyme for full effect and enzyme alone for no effect", "details": "multiplex microsphere protease substrate cleavage, at 10 µM, stronger effect = higher value", "values": [
      {"smiles": "S=c1[nH]nc(C2CCCCC2)n1/N=C/c1cccs1", "inhibition": "inconclusive: -2%"},
      {"smiles": "CCOC(=O)N(Cc1ccccc1)Cc1ccc(C(=O)N[C@@H](Cc2ccccc2)C(=O)O)cc1", "inhibition": "inconclusive: 12.4%"},
      {"smiles": "Fc1ccc(-c2ncc3ccccn23)cc1", "inhibition": "active: 35.6%"},
      {"smiles": "Cc1ccc(C(O)c2ncc(-c3ccc(Cl)cc3)[nH]2)cc1", "note": "(stereo not given)", "inhibition": "inactive: -0.5%"},
      {"smiles": "Cc1cc(=O)[nH]c(-c2ccc(Cl)cc2)n1", "inhibition": "inconclusive: 5.2%"},
      {"smiles": "Cc1ccccc1-c1noc(C2CCCCC2)n1", "inhibition": "inconclusive: -1.2%"},
      {"smiles": "O=[N+]([O-])c1cccc(S(=O)(=O)NCc2ccccn2)c1", "inhibition": "inconclusive: 5.9%"},
      {"smiles": "COC(=O)c1sc2ccccc2c1C(=O)OC", "inhibition": "inconclusive: 0.9%"},
      {"smiles": "O=c1c2ccccc2nc(-c2ccc(Cl)cc2)n1C1CCS(=O)(=O)C1", "note": "(stereo not given)", "inhibition": "inconclusive: 5.8%"},
      {"smiles": "CCN1/C(=C/c2ccc3cc(C)ccc3[n+]2CC)Sc2ccccc21", "inhibition": "active: 77.8%"},
      {"smiles": "N[C@@H](Cc1c[nH]c2ccccc12)c1nnc(SCc2ccccc2)o1", "inhibition": "inactive: 0.1%"},
      {"smiles": "CCOC(=O)c1c(C)[nH]c(C(=O)OCC(=O)Nc2cc(C)ccc2OC)c1C", "inhibition": "inactive: 0%"},
      {"smiles": "O=C(OCc1ccccc1)c1cccc(-c2nnc(-c3ccccc3)o2)c1", "inhibition": "inconclusive: -0.3%"},
      {"smiles": "Cc1c(Cl)cccc1NC(=O)CCC(=O)NNC(=O)c1ccccc1Cl", "inhibition": "inconclusive: -3.5%"},
      {"smiles": "COc1cnn(C(C)(C)C)c(=O)c1Cl", "inhibition": "inconclusive: 8.3%"},
      {"smiles": "COc1ccc(CN(Cc2cccn2C)S(=O)(=O)c2ccc(C)cc2)cc1", "inhibition": "inconclusive: -4.3%"},
      {"smiles": "c1ccc(Cn2c(CNc3nc4ccccc4n3CCN3CCOCC3)nc3ccccc32)cc1", "inhibition": "inconclusive: -0.5%"},
      {"smiles": "C=CCNC(=S)Nc1ccccc1-c1nnc2n1CCCCC2", "inhibition": "inactive: 0.5%"},
      {"smiles": "Cc1cc2cc(CNC(=S)Nc3ccc(OC(F)(F)F)cc3)ccc2n1C", "inhibition": "active: 59.5%"},
      {"smiles": "CCSc1nnc([C@H](C)NC(=O)OC(C)(C)C)o1", "inhibition": "inconclusive: -3.6%"},
      {"smiles": "Clc1cccc(Cl)c1CN1CCN(c2ncccn2)CC1", "inhibition": "inconclusive: -1%"},
      {"smiles": "O=C(CSc1ccccn1)N1CCN(c2ncc(C(F)(F)F)cc2Cl)CC1", "inhibition": "inconclusive: -1.7%"},
      {"smiles": "CC(C)[C@@H]1CC[C@@H](C)C[C@H]1OC(=O)C[n+]1cc(-c2ccc(Cl)cc2)n2c1CCCCC2", "inhibition": "inconclusive: 1.9%"},
      {"smiles": "CN(C)CCCOC(=O)COc1ccc(Br)cc1", "inhibition": "inconclusive: -37.5%"},
      {"smiles": "O=C(NCCc1ccccn1)C1CC(=O)N(Cc2ccccc2Cl)C1", "note": "(stereo not given)", "inhibition": "inconclusive: 1.1%"},
      {"smiles": "Cc1cc(C)cc(NC(=S)N2CCN(c3ccccn3)CC2)c1", "inhibition": "inconclusive: -5.1%"},
      {"smiles": "C=CCOc1c(CNc2ccc(C(=O)O)cc2)cccc1OCC", "inhibition": "inconclusive: 8.5%"},
      {"smiles": "Cc1ccc2nc(SCC(=O)Nc3nonc3C)[nH]c2c1", "inhibition": "inactive: -1.8%"},
      {"smiles": "CCC(SC1=Nc2ccccc2C2=NC(CC(C)C)C(=O)N12)C(=O)Nc1ccc2c(c1)OCO2", "note": "(stereo not given)", "inhibition": "inactive: -0.2%"},
      {"smiles": "Cc1cc(C(=O)NNc2c(Cl)cccc2Cl)n(C(C)(C)C)n1", "inhibition": "inconclusive: -19.1%"},
      {"smiles": "COc1cc(/C=C(/C#N)c2ccccc2)ccc1Oc1ccc([N+](=O)[O-])cn1", "inhibition": "inconclusive: -2.5%"},
      {"smiles": "Cc1cc2c(NC(=O)Nc3ccc(C(F)(F)F)cc3)cccc2nn1", "inhibition": "inconclusive: -18.3%"},
      {"smiles": "O=C(CSc1nc2cc(Cl)c(Cl)cc2[nH]1)c1ccc2c(c1)OCO2", "inhibition": "inactive: -0.4%"},
      {"smiles": "Cc1onc(-c2ccccc2Cl)c1C(=O)NCCn1c(C)cc2ccccc21", "inhibition": "active: 59.2%"},
      {"smiles": "COc1ccc(CNC(=O)CN(C)Cc2ccc(C(C)(C)C)cc2)cc1", "inhibition": "inactive: 0.2%"},
      {"smiles": "Nc1nnc(SCC(=O)N2CCN(c3cccc(Cl)c3)CC2)n1-c1ccccc1", "inhibition": "inactive: -0.3%"},
      {"smiles": "O=C(NCc1ccc(F)cc1)c1cc(S(=O)(=O)N2CCOCC2)ccc1F", "inhibition": "inconclusive: 9.4%"},
      {"smiles": "Cc1ccc(OCC(=O)Nc2ccc(Cl)cc2C(=O)c2ccccc2)cc1", "inhibition": "inactive: -2%"},
      {"smiles": "O=C(Nc1ccon1)c1cc2c(s1)CCCCCC2", "inhibition": "inconclusive: -1.9%"},
      {"smiles": "COc1ccc(CCCc2nnc(SCC(=O)Nc3nc(C)cs3)n2C)cc1", "inhibition": "inconclusive: 43.6%"},
      {"smiles": "COc1ccc(OCCCC(=O)NCc2ccco2)cc1", "inhibition": "inactive: -1.1%"},
      {"smiles": "COCCCN1C(=O)c2[nH]nc(-c3cc(C)cc(C)c3O)c2C1c1ccc(O)c(OC)c1", "note": "(stereo not given)", "inhibition": "inconclusive: 7.2%"},
      {"smiles": "Nc1nnnn1/N=C/c1cccs1", "inhibition": "inconclusive: 2.9%"},
      {"smiles": "CCC(=O)N1c2ccccc2C(N(C(=O)CC)c2ccccc2)CC1C", "note": "(stereo not given)", "inhibition": "inconclusive: 0.2%"},
      {"smiles": "O=C(CCC1CCCN(C(=O)c2ccccc2Cl)C1)N1CCN(c2ccccn2)CC1", "note": "(stereo not given)", "inhibition": "inactive: 3.2%"},
      {"smiles": "COc1ccccc1NC(=O)c1ccccc1N(Cc1ccccc1)S(C)(=O)=O", "inhibition": "inconclusive: 1.3%"},
      {"smiles": "CC(C)NS(=O)(=O)c1ccc(OCC(=O)N2CCCC2)cc1", "inhibition": "inconclusive: -2.7%"},
      {"smiles": "CC1(C)CC(=O)C(C=NCCN2CCN(C(=S)Nc3ccc(F)cc3)CC2)=C(O)C1", "inhibition": "inconclusive: -1.8%"},
      {"smiles": "CCCCn1c(SCC(=O)Nc2ccccc2C(F)(F)F)nc2ccsc2c1=O", "inhibition": "inconclusive: -2.8%"},
      {"smiles": "COCCCN(C(C)=O)c1nc(-c2ccccc2)cs1", "inhibition": "inconclusive: 1.2%"},
      {"smiles": "CCc1nnc(NC(=O)Nc2ccccc2OC)s1", "inhibition": "inconclusive: 0.1%"},
      {"smiles": "COc1ccc(C2C(C#N)C(C#N)N3CCCN23)cc1", "note": "(stereo not given)", "inhibition": "inconclusive: -3.3%"},
      {"smiles": "CN(C)/C=C1\\C(=O)N(C)N=C1C(F)(F)F", "inhibition": "inactive: 0.1%"},
      {"smiles": "CN(C)C(=O)c1ccc(NC(=O)COc2ccc([N+](=O)[O-])cc2)cc1", "inhibition": "inactive: -0.6%"},
      {"smiles": "CC(NC(=O)c1ccco1)C(=O)N1CCCCC1", "note": "(stereo not given)", "inhibition": "inactive: 1.7%"},
      {"smiles": "CCn1cc(C(=O)c2ccccc2)c2ccccc21", "inhibition": "inconclusive: 4.5%"},
      {"smiles": "COc1cc(S(=O)(=O)N2CC(=O)Nc3ccccc32)ccc1NC(C)=O", "inhibition": "inactive: 1.5%"},
      {"smiles": "COC(=O)c1ccc(/C=N\\N2CCN(Cc3ccc(C)cc3)CC2)cc1", "inhibition": "inconclusive: -2.9%"},
      {"smiles": "Cc1cccc(OCc2nc(C#N)c(NCc3ccc4c(c3)OCO4)o2)c1", "inhibition": "inactive: -1%"},
      {"smiles": "Cc1cc(NS(=O)(=O)c2ccc(NC(=O)Nc3ccc4c(c3)OCO4)cc2)no1", "inhibition": "inconclusive: 0.1%"}
    ]}
  ]
}
